# Experimental data: PubChem BioAssay AID720505 (Drosophila RNAi Screening Center, 2013)
# Assay: 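Knock-downs that reduce calcium influx once internal stores are emptied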 (primary screen)
# Cell system: Drosophila S2R+ cells
# Knock-down reagent: long dsRNA against Drosophila genes
# Challenge: thapsigargin (2 µM) in calcium-free buffer to empty internal stores, then 2 mM calcium added back
# Detection: 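Stores emptied by 2 µM thapsigargin without calcium, then 2 mM calcium re-added; fluo-4 fluorescence followed by FLIPR in 384-well plates, per-well averaged endpoint, raw; two screen passes, some wells retested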
# Scale: calcium signal and retest calcium signal: higher = more calcium entry after store depletion
# Active means: 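About 1500 genes called as lowering calcium entry, by varying amounts, judged against per-plate control wells with STIM1 as positive and Rho1 as negative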
# Meaning of the calls: active = called as lowering calcium entry; inactive = not called
# In all, the deposit lists about 20,000 reagents; below is an unselected part of those with a known target gene and a result. In the full data, about 2,100 (10%) were called active. 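Raw plate signals without normalisation; calls rest on control-based scores that were not deposited; replicate 2 separates called from uncalled poorly.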 Entries without a mark were called inactive. A plus sign joins genes that one reagent is predicted to hit. The record does not give: the amount of reagent, the time to read-out.
gene,dsRNA,"calcium signal, replicate 1","calcium signal, replicate 2","retest calcium signal, replicate 1","retest calcium signal, replicate 2"
CG32507,DRSC20421,56.8 (active),68.1,7126,123
CG42507 + Trl,DRSC11308,92,96.6,,
Polr1F (RNA polymerase I subunit F),DRSC02278,90.3,156,,
CG17359,DRSC10265,81.2,119,,
CG17744,DRSC10286,130,79.2,,
Elp1 (Elongator complex protein 1),DRSC14250,80,103,,
Sgp (Sgroppino),DRSC02195,79.6,84.5,,
AANATL7 (Arylalkylamine N-acetyltransferase-like 7),DRSC18616,96,138,,
CG12617,DRSC02176,101,106,,
sing (singles bar),DRSC19530,92.2,118,,
CG15864,DRSC15122,110,106,,
mRpS22 (mitochondrial ribosomal protein S22),DRSC14488,87.5,106,,
Ak2 (Adenylate kinase 2),DRSC04043,74.3,131,,
CG42818,DRSC01963,78.9 (active),95,,
CG7557,DRSC10878,209,102,,
nAChRbeta2 (nicotinic Acetylcholine Receptor beta2),DRSC17010,189,260,,
Clc (Clathrin light chain),DRSC11116,111,80.3,,
His-Psi:CR31754 (pseudo),DRSC22051,80,147,,
CG5191,DRSC15733,163,267,,
CG5191,DRSC15734,193,185,,
CG5191,DRSC21559,162,98.5,,
CG15754,DRSC19719,108,81.9,,
Cyp6t3 (Cytochrome P450 6t3),DRSC07388,108,138,,
CG14321,DRSC14800,60.1 (active),84.7,,
CG10347,DRSC19352,130,83.1,,
CG5050,DRSC02807,128,102,,
CG14454,DRSC11711,74.5,125,,
CG9890,DRSC04590,112,167,,
Osi2 (Osiris 2),DRSC12174,116,124,,
Gr59e (Gustatory receptor 59e),DRSC04276,176,233,,
CG2972,DRSC18250,156,119,,
CG5089,DRSC06914,140,89.3,,

Ordered by “calcium signal, replicate 2” (descending): some entries from above
gene,dsRNA,"calcium signal, replicate 1","calcium signal, replicate 2","retest calcium signal, replicate 1","retest calcium signal, replicate 2"
CG5191,DRSC15733,163,267,,
CG5191,DRSC15734,193,185,,
His-Psi:CR31754 (pseudo),DRSC22051,80,147,,
CG5191,DRSC21559,162,98.5,,
Clc (Clathrin light chain),DRSC11116,111,80.3,,

Additional results follow:
gene,dsRNA,"calcium signal, replicate 1","calcium signal, replicate 2","retest calcium signal, replicate 1","retest calcium signal, replicate 2"
CG7556,DRSC20052,152,133,,
CG6674,DRSC10692,74 (active),118,,
Gr5a (Gustatory receptor 5a),DRSC18085,121,129,,
Vap33 (VAMP-associated protein 33kDa),DRSC18384,107,89.1,,
apolpp (apolipophorin),DRSC17216,137,182,,
L2HGDH (L-2-hydroxyglutarate dehydrogenase),DRSC02082,76.9,109,,
CG3690,DRSC18170,103,170,,
CG3690,DRSC18641,87.3,140,,
Spg7 (Paraplegin),DRSC18469,103,135,,
Ykt6 (YKT6 v-SNARE),DRSC17970,139,118,,
wus (wurst),DRSC20278,76.9 (active),102,,
Fbxl4 (F box and leucine-rich-repeat gene 4),DRSC19805,181,108,,
Antp (Antennapedia),DRSC12490,113,137,,
Antp (Antennapedia),DRSC23104,124,148,,
Art3 (Arginine methyltransferase 3),DRSC16065,108,137,,
CG13044,DRSC09925,136,157,,
SH3PX1 (SH3 and PX domain containing 1),DRSC11139,124,90.3,,
c-cup (calcutta cup),DRSC00458,164,143,,
Mgat4a,DRSC09326,71.5,106,,
Mgat4a,DRSC11070,72.4,156,,
18w (18 wheeler),DRSC05029,178,171,,
Lip3 (Lipase 3),DRSC16727,195,197,94.1,87.8
Fad2,DRSC11165,62.5,109,,
NdufA3 (NADH:ubiquinone oxidoreductase subunit A3),DRSC18431,64.5,79.9,,
